Results taken from patent US20170119727A1, “A THERAPEUTIC PROTOCOL FOR TREATING OVARIAN CANCER” (Bionomics Limited, priority 2014, published 2017).

Test system: ferritin, interleukin-8, interleukin-16 and macrophage inflammatory protein-1β
Assay: Phase I clinical trial: plasma biomarker studies
Assay type: in vivo, female ovarian cancer subjects (patients)
Settings: following Example 2 at 12 mg/m^2; relative to pre-treatment baseline

COc1cc(C(=O)c2c(C)oc3c(OP(=O)([O-])[O-])c(OC)ccc23)cc(OC)c1OC.[Na+].[Na+] [Example 2, Disodium 6-methoxy-2-methyl-3-(3,4,5-trimethoxybenzoyl)benzofuran-7-yl phosphate]
increase significantly and transiently: Plasma concentration of ferritin | Plasma concentration of interleukin-8 | Plasma concentration of interleukin-16 | Plasma concentration of macrophage inflammatory protein-1β
